Assay results: publication PMC11445549
These are yes or no findings as the source states them, for the method shown. In cells and extracts the contact can be indirect. Some binding calls cover weakened binding; strength is not graded here. Sequences can lack the tags named with a protein.

By UniProt entry, the sequences of proteins in these tests, tags left out.
UniProt P19474: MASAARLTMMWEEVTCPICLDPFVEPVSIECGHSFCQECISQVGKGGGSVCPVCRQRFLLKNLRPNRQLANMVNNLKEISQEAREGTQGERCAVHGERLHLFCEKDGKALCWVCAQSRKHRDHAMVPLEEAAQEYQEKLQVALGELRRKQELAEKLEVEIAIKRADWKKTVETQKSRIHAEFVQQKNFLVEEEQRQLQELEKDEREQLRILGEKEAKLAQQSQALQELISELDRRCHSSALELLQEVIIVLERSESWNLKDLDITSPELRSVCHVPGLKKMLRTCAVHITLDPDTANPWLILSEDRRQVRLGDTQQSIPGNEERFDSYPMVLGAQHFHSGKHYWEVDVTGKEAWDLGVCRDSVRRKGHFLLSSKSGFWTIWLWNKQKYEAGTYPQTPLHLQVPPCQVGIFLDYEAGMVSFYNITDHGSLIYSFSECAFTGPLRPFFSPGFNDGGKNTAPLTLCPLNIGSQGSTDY

Tests used:
[1] = molecular target: T1, Flag-EPDR1 (ependymin-related protein 1) (UniProt Q9UM22); test: co-IP; HepG2 cells infected with lentivirus carrying Flag-EV or Flag-EPDR1 together with HA-TRIM21; lysates (1% NP-40 IP buffer) immunoprecipitated with anti-Flag, blotted for Flag and HA
T1 sequence: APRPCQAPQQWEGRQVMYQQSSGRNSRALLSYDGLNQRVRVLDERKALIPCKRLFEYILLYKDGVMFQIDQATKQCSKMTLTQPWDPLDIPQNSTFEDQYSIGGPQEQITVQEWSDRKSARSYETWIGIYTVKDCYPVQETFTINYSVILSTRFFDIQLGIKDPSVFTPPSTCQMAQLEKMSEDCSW

[2] = molecular target: T1, Flag-EPDR1 (ependymin-related protein 1); test: co-IP; HEK293T cells transfected with a Flag-tagged and an HA-tagged protein; lysates (1% NP-40 IP buffer) immunoprecipitated with anti-Flag, blotted for HA
Flag-IKBKB = molecular target: T2, Flag-IKBKB (UniProt O14920); test: as above
T2 sequence: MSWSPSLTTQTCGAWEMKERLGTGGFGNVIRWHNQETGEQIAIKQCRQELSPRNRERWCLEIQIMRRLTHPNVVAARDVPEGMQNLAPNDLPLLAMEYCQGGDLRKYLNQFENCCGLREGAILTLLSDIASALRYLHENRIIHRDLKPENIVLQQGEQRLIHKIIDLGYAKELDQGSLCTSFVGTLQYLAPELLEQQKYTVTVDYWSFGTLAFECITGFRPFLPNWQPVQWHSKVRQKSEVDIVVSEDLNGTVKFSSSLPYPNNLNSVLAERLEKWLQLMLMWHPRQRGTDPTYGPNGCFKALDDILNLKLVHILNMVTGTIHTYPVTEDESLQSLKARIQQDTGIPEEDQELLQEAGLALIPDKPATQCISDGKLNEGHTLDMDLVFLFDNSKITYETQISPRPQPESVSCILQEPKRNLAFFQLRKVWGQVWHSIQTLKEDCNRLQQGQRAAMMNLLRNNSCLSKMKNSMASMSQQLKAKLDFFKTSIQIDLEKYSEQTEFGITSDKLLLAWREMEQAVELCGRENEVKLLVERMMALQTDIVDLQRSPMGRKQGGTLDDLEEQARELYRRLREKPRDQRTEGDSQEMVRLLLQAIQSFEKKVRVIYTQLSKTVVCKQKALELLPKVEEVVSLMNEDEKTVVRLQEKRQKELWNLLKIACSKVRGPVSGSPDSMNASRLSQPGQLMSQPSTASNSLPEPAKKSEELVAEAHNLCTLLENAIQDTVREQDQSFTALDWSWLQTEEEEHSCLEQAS

- binding [1]: binds
- binding [2]: binds
- binding (Flag-IKBKB): binds
Substance: HA-TRIM21 (from UniProt P19474 1-475)
